{"source": "patent EP2706070A1", "about": "“Combination treatments involving antibodies to human PCSK9” (SANOFI, priority 2012, dated 2014)", "system": "LDL-C", "assay": "Study 1 (phase I, 3 parallel groups), run-in with ezetimibe or fenofibrate, expected LDL-C decrease", "assay_type": "in vivo, human", "details": "healthy subjects with LDL-C >130 mg/dL, not on lipid lowering therapy; ezetimibe 10 mg or fenofibrate 160 mg once daily", "note": "At least one structure is not confirmed: it was looked up by name or label, or the drawing left a doubt."}
{"smiles": "CC(C)OC(=O)C(C)(C)Oc1ccc(C(=O)c2ccc(Cl)cc2)cc1", "note": "[fenofibrate]", "values": [{"measurement": "decrease in LDL-C (expected)", "value": "about 15%"}]}
